Results deposited as PubChem BioAssay AID1671195 (Yale University, 2021).

- Purpose: 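Knockdowns that increase or decrease uptake of fluorescent LDL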 (primary screen)
- Cell system: human Huh7 hepatoma cells
- Reagent: siRNA pool against human genes, 18 nM
- Duration: about 2 to 2.5 days of knockdown, then 8 h LDL uptake
- Conditions: DiI-labelled LDL at 30 µg/ml for 8 h, in lipoprotein-deficient serum medium
- Read-out: 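Fluorescent LDL signal imaged in cells, scaled to the plate median, robust z-score for each replicate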
- Direction: robust z-score: higher = more LDL uptake after knockdown
- Call rule: 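Active when two or more replicates show a robust z-score above 2 or below -2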
The deposit covers about 22,000 reagents; below is an unselected part. Over the whole deposit, about 1,510 (6.9%) are marked active. 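Active includes knockdowns raising or lowering LDL uptake; positive z-scores mean more uptake, negative mean less.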

The opening 3 entries, to show the layout:
no.	gene symbol	robust z-score, replicate 1	robust z-score, replicate 2	robust z-score, replicate 3	call
1	SUCO	-1.1	-0.452	-0.846	inactive
2	UCK1	1.15	0.616	0.235	inactive
3	HSPA1L	3.22	2.96	3.12	active

The list itself, from the first entry:
no.	gene symbol	robust z-score, replicate 1	robust z-score, replicate 2	robust z-score, replicate 3	call
1	SUCO	-1.1	-0.452	-0.846	inactive
2	UCK1	1.15	0.616	0.235	inactive
3	HSPA1L	3.22	2.96	3.12	active
4	GZMM	-0.657	-0.346	-0.424	inactive
5	FSTL1	0.149	-0.471	-0.58	inactive
6	LOC441567 (retired record)	-0.071	-0.129	0.493	inactive
7	PCDHGB6	-0.235	0.0987	0.334	inactive
8	PTP4A2	1.47	1.62	1.28	inactive
9	DAAM2	-2.76	-1.66	-2.16	active
10	PPIL6	-0.855	-0.552	-0.858	inactive
11	DRC9	-0.597	-0.408	-0.122	inactive
12	FKBP11	0.554	1.39	0.157	inactive
13	SELENOV	-0.789	-1.07	-0.964	inactive
14	PCDHA6	0.0605	-0.226	-0.382	inactive
15	LOC440951 (retired record)	0.451	1.75	0.932	inactive
16	TIMELESS	-0.517	-1.16	-0.553	inactive
17	SPP2	-0.932	-0.0506	-0.0423	inactive
18	HERC1	1.86	4.6	3.89	active
19	TSPAN12	-0.551	-1.2	-0.523	inactive
20	ACKR4	1.81	2.84	2.83	active
21	ZNF879	-0.889	-0.97	-1.28	inactive
22	VSTM2A	-0.522	-0.398	-0.399	inactive
23	COL22A1	0.188	0.48	0.591	inactive
24	KLF4	-0.358	-0.361	-0.545	inactive
25	LOC401032 (retired record)	-0.772	-1.11	-1.26	inactive
26	CCR9	0.0626	0.131	-0.313	inactive
27	ZNF160	1.69	1.78	1.91	inactive
28	LOC391667 (retired record)	1.08	1.08	1.3	inactive
